Data source: PubChem BioAssay AID1259308 (NCATS, 2017)
The deposit covers about 59,000 reagents; below is a part drawn at random. Over the whole deposit, about 1,510 (2.6%) are marked active. 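Calls use total luciferase alone and ignore viability, so some active siRNAs may act by altering cell number.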 Reagent sequences are not shown.

Assay: 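Knock-downs that increase output of a recombinant reporter protein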 (primary screen)
Cell system: human HEK293 embryonic kidney cells stably expressing firefly luciferase (HEK-CMV-Luc2-Hygro)
Reagent: single siRNA against human genes, 0.8 pmol siRNA per well
Timing: 72 h
Read-out: 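Luciferase light (ONE-Glo) measured on one replicate plate set and viability (CellTiter-Glo) on the other, scaled to a negative control siRNA, with robust z-scores and luciferase per cell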
Direction: total luciferase, z-score and total luciferase, % of control: higher = more reporter protein produced; luciferase per cell, z-score: higher = more reporter output per viable cell; viable cells, % of control: higher = more viable cells
Hit rule: 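An siRNA counts as active if its total luciferase robust z-score exceeds 3; genes with two or more such siRNAs out of three were retested with fresh siRNAs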
Meaning of the calls: active = raised luciferase; inactive = no rise

gene symbol	PubChem SID	total luciferase, z-score	total luciferase, % of control	luciferase per cell, z-score	viable cells, % of control	outcome
PRMT3	SID160726761	-0.00372	81.8	0.837	73.3	inactive
PRMT3	SID160726765	-0.0659	80.6	-0.429	101	inactive
PRMT3	SID160726773	-0.181	78.3	-0.268	93.9	inactive
NOC4L	SID160748541	-0.567	70.6	-0.807	97.6	inactive
NOC4L	SID160748542	-0.616	69.6	-0.164	81.2	inactive
NOC4L	SID160748543	-0.392	74.1	-0.11	85.2	inactive
MXD3	SID160724592	-0.552	70.9	-0.447	89.1	inactive
MXD3	SID160751141	-0.45	72.9	-0.402	90.6	inactive
MXD3	SID160751142	2.62	134	2.74	72.9	inactive
ARMC12	SID160761711	1.1	104	0.569	99.8	inactive
ARMC12	SID160761712	1.62	114	1.66	82.4	inactive
ARMC12	SID160761713	4.46	171	3.08	84.8	active
LCE3D	SID160724626	2.22	126	1.1	105	inactive
LCE3D	SID160724628	-1.93	43.5	-2.3	88.9	inactive
LCE3D	SID160724629	-2.79	26.4	-0.715	35.6	inactive
PIGC	SID160714309	-1.15	58.9	-0.755	80.3	inactive
PIGC	SID160714310	0.203	85.9	-0.395	107	inactive
PIGC	SID160714311	-0.184	78.2	-0.338	95.5	inactive
FNDC11	SID160748499	0.906	99.9	1.39	77.4	inactive
FNDC11	SID160748500	-0.695	68.1	-1.03	99.6	inactive
FNDC11	SID160748501	1.17	105	0.64	99.2	inactive
ERH	SID160761789	-1.21	57.9	0.54	56.1	inactive
ERH	SID160761800	-0.673	68.5	0.0104	76.3	inactive
ERH	SID160761811	-1.54	51.3	-0.799	70.7	inactive
KDM5A	SID160715705	-0.301	75.9	-0.177	88.9	inactive
KDM5A	SID160715706	-0.305	75.8	0.27	78.9	inactive
KDM5A	SID160715707	0.156	85	-0.0229	95.5	inactive
GJB1	SID160771037	4.22	166	3.62	71.4	active
GJB1	SID160771039	-0.212	77.7	-0.525	99.7	inactive
GJB1	SID160771050	-1.09	60.3	0.538	58.5	inactive
TRPV1	SID160718781	0.695	95.7	-0.392	119	inactive
TRPV1	SID160718782	-0.395	74	-0.615	97.3	inactive
TRPV1	SID160718783	0.366	89.2	0.077	97.6	inactive
FAM222B	SID160733620	-0.366	74.6	-0.321	90.7	inactive
FAM222B	SID160744202	-0.804	65.9	-0.658	87.6	inactive
FAM222B	SID160744204	-0.352	74.9	-0.578	97.5	inactive
RAB36	SID160722608	-0.535	71.2	-0.161	83.1	inactive
RAB36	SID160722609	2.33	128	1.22	104	inactive
RAB36	SID160732208	-0.274	76.4	0.354	77.8	inactive
RSPH10B	SID160761914	1.47	111	1.05	94.3	inactive
RSPH10B	SID160761915	0.751	96.8	0.206	102	inactive
RSPH10B	SID160761917	-0.445	73	-0.32	88.8	inactive
STX8	SID160722323	-0.276	76.4	-0.0832	87.3	inactive
STX8	SID160722324	0.961	101	0.402	102	inactive
STX8	SID160722325	3.6	154	2.51	88.6	active
FAM238A	SID160725828	3.66	155	2.16	98	active
FAM238A	SID160725829	-0.554	70.9	1.05	60	inactive
FAM238A	SID160769594	0.898	99.8	1.12	83.1	inactive
SERPINA2	SID160766527	1.16	105	0.478	103	inactive
SERPINA2	SID160766528	-0.318	75.6	-0.0758	86.1	inactive
SERPINA2	SID160766530	0.863	99.1	0.402	99.6	inactive
ABCB9	SID160736315	0.0328	82.5	-0.179	96.7	inactive
ABCB9	SID160736317	0.397	89.8	0.195	95.3	inactive
ABCB9	SID160736318	0.18	85.5	2.01	56.2	inactive
PRKG2	SID160714973	-1.08	60.5	-1.15	91.6	inactive
PRKG2	SID160714974	0.11	84.1	-0.332	103	inactive
PRKG2	SID160714975	-0.294	76	-0.925	108	inactive
